# Measurements reported in the supplement of paper PMC4604168 (melanoma cell lines).
# The other results are listed elsewhere or left out. Repeats are few or missing, and single values can be far off.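 The apoptosis fraction was the count of cleaved-PARP antibody-stained nuclei relative to all DNA-stained nuclei, imaged in 1,536-well plates. Screening doses were set so most cells survived, and baseline and induced cleaved-PARP levels vary greatly across cell lines.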
# Columns and labels:
# Assay in all cases: cleaved PARP positive nuclei fraction relative to DMSO control; melanoma cells; higher = more apoptosis
# Conditions in all cases: library dose: low library concentration; 72 h
# 501Mel = tested on: 501Mel
# A101D = tested on: A101D
# A2058 = tested on: A2058
# A375 = tested on: A375
# C32 = tested on: C32
# CBRC008 = tested on: CBRC008 (line from a melanoma biopsy)
# CBRC013 = tested on: CBRC013 (line from a melanoma biopsy)
# CBRC014 = tested on: CBRC014 (line from a melanoma biopsy)
# CBRC016 = tested on: CBRC016 (line from a melanoma biopsy)
# CBRC017 = tested on: CBRC017 (line from a melanoma biopsy)
SMILES,cleaved PARP positive nuclei fraction (501Mel) [%],cleaved PARP positive nuclei fraction (A101D) [%],cleaved PARP positive nuclei fraction (A2058) [%],cleaved PARP positive nuclei fraction (A375) [%],cleaved PARP positive nuclei fraction (C32) [%],cleaved PARP positive nuclei fraction (CBRC008) [%],cleaved PARP positive nuclei fraction (CBRC013) [%],cleaved PARP positive nuclei fraction (CBRC014) [%],cleaved PARP positive nuclei fraction (CBRC016) [%],cleaved PARP positive nuclei fraction (CBRC017) [%]
"C[As](C)SC[C@H](NC(=O)CC[C@H](N)C(=O)O)C(=O)NCC(=O)O [Darinaparsin] + C[C@@H]1CCN(C(=O)CC#N)C[C@@H]1N(C)c1ncnc2[nH]ccc12 [CP690550] (first compound 0.4 µM, partner dose 1 µM)",93.4,72.6,33.9,101,112,29.8,133,90.5,60.7,77.2
"C[As](C)SC[C@H](NC(=O)CC[C@H](N)C(=O)O)C(=O)NCC(=O)O [Darinaparsin] + NC(=O)Nc1cc(-c2cccc(F)c2)sc1C(=O)N[C@H]1CCCNC1 [AZD7762] (first compound 0.4 µM, partner dose 0.02 µM)",85.1,219,72.2,275,81.8,384,89.3,80.9,57.7,88.2
"C[As](C)SC[C@H](NC(=O)CC[C@H](N)C(=O)O)C(=O)NCC(=O)O [Darinaparsin] + CO[C@@H]1[C@H](N(C)C(=O)c2ccccc2)C[C@H]2O[C@]1(C)n1c3ccccc3c3c4c(c5c6ccccc6n2c5c31)C(=O)NC4 [Midostaurin] (first compound 0.4 µM, partner dose 0.08 µM)",67.7,84.8,220,137,115,86.6,77.6,104,855,75.4
"Cn1cc(C2=C(c3cn(C4CCN(Cc5ccccn5)CC4)c4ccccc34)C(=O)NC2=O)c2ccccc21 [Enzastaurin] + Cc1ccc(NC(=O)c2cccc(N(C)C)c2)cc1NC(=O)c1ccc(O)cc1 [ZM336372] (first compound 0.8 µM, partner dose 2 µM)",98.2,90.6,126,52.9,41,454,71.1,150,153,94.4
"C[C@]12O[C@H](C[C@]1(O)CO)n1c3ccccc3c3c4c(c5c6ccccc6n2c5c31)CNC4=O [Lestaurtinib] + COc1cc(Nc2ncc(F)c(Nc3ccc4c(n3)NC(=O)C(C)(C)O4)n2)cc(OC)c1OC [Tamatinib] (first compound 0.004 µM, partner dose 0.4 µM)",165,86.3,107,110,72.1,238,113,75.8,145,91.5
"C[As](C)SC[C@H](NC(=O)CC[C@H](N)C(=O)O)C(=O)NCC(=O)O [Darinaparsin] + O=C(CCCCCCC(=O)Nc1ccccc1)NO [vorinostat] (first compound 0.4 µM, partner dose 0.08 µM)",93,74.4,42.1,82.6,75.3,60.5,103,86,31.2,135
"N.N.[Cl][Pt][Cl] [cisplatin] + CO[C@@H]1[C@H](N(C)C(=O)c2ccccc2)C[C@H]2O[C@]1(C)n1c3ccccc3c3c4c(c5c6ccccc6n2c5c31)C(=O)NC4 [Midostaurin] (first compound 1.6 µM, partner dose 0.08 µM)",168,91.2,148,117,109,252,67.3,210,356,134
"C[C@]12O[C@H](C[C@]1(O)CO)n1c3ccccc3c3c4c(c5c6ccccc6n2c5c31)CNC4=O [Lestaurtinib] + C=CCn1c(=O)c2cnc(Nc3ccc(N4CCN(C)CC4)cc3)nc2n1-c1cccc(C(C)(C)O)n1 [MK1775] (first compound 0.004 µM, partner dose 0.02 µM)",85.9,96.5,100,135,84.2,81.2,116,95.4,35.4,80.2
"N.N.[Cl][Pt][Cl] [cisplatin] + Cc1cc(N2CCOCC2)cc2[nH]c(-c3c(NC[C@@H](O)c4cccc(Cl)c4)cc[nH]c3=O)nc12 [BMS536924] (first compound 1.6 µM, partner dose 0.2 µM)",184,90.2,155,320,97.7,288,75.8,117,139,136
"Cn1cc(C2=C(c3cn(C4CCN(Cc5ccccn5)CC4)c4ccccc34)C(=O)NC2=O)c2ccccc21 [Enzastaurin] + CN(C)S(=O)(=O)c1ccc2c(c1)/C(=C/c1cc3c([nH]1)CCCC3)C(=O)N2 [SU6656] (first compound 0.8 µM, partner dose 0.4 µM)",87.4,92.6,71.1,55.1,96.4,287,67.5,223,169,127
